# Source: PubChem BioAssay AID485353 (National Center for Advancing Translational Sciences (NCATS), 2010)
# About 610 (0.18%) of roughly 330,000 compounds were called active. The inconclusive results got no clear call from the source; some entries with a clear call stand among them for comparison. Calls come from the whole dose curve. A potency beside an inconclusive call is a rough fit, not a confirmed value.
# Experiment: qHTS of Yeast-based Assay for SARS-CoV PLP; note: nearly all actives have a fitted effect of over 55% in size; for activity, positive = growth rescue: 0% is about no effect
# Conditions: S. cerevisiae expressing SARS-CoV PLpro; Potency: growth rescue; activity, positive = growth rescue: at 32.9 µM (top of the series)
# Potency is the fitted concentration of half-maximal effect.
Compound,Potency,"activity, positive = growth rescue"
CCNC(=S)N/N=C/c1cccs1,"inconclusive: 20 µM [activator, single point]",–
CCOC(=O)c1ccc(NC(=O)Nc2ccc(F)cc2)cc1,"inconclusive: 20 µM [activator, single point]",–
CCOC(=O)c1oc2ccccc2c1CN1CCN(C(=O)c2ccccc2)CC1,active: 3.55 µM,–
Cc1ccc(NC(=O)c2ccc(NC(=O)C3CCCCC3C(=O)O)cc2)cc1 (centres undefined),"inconclusive: 3.98 µM [activator, single point]",–
CC(C)(C)c1csc(NC(=O)CCc2ccccc2)n1,–,inactive: -8.37%
CCOc1ncccc1C(=O)Nc1ccc(Cl)cc1,"inconclusive: 3.16 µM [activator, single point]",–
Clc1cccc(NCc2cn3cccnc3n2)c1,–,inactive: -8.26%
O=C(Cn1nc(Cc2cccnc2)c2ccccc2c1=O)NCC1CCCO1 (centres undefined),"inconclusive: 20 µM [activator, single point]",–
O=C(c1ccco1)N1CCN(c2c([N+](=O)[O-])nn(-c3ccc(Cl)cc3)[n+]2[O-])CC1,"inconclusive: 6.31 µM [activator, partial curve]",–
O=C1Nc2ccccc2C(O)(C(=O)N2CCCCC2)N1c1ccccc1 (centres undefined),"inconclusive: 20 µM [activator, single point]",–
C[C@@H]1CN([C@@H](C)CO)C(=O)c2cc(NC(=O)Nc3ccccc3)ccc2O[C@H]1CN(C)C(=O)Nc1cccc2ccccc12,–,inactive: -5.95%
COc1ccc(C(=O)N/N=C2/SCC(=O)N2Cc2ccc3c(c2)OCO3)cc1OC,"inconclusive: 11.2 µM [activator, single point]",–
CC(C)c1c(C(=O)N/N=C/c2ccccc2C(=O)O)nnn1-c1nonc1N,active: 5.01 µM,–
O=C(Nc1nc2ccc(F)cc2s1)c1cccc(S(=O)(=O)N2CCc3ccccc32)c1,active: 3.16 µM,–
COc1ccc(CNC(=O)CC2C[C@H](C(=O)N3CCOCC3)[C@@]3(CCC4CCCC4)c4[nH]c5ccccc5c4CCN3C2=O)cc1OC (some centres undefined),"inconclusive: 4.47 µM [activator, single point]",–
CCN(CC)c1ccc(C(=O)N/N=C/c2ccccc2OC(F)F)cc1,active: 8.91 µM,–
COc1ccc(C2CCN(Cc3cccnc3)CC2O)cc1 (centres undefined),"inconclusive: 10 µM [activator, single point]",–
CN(c1ccccc1C(=O)Nc1ccc(CC#N)cc1)S(=O)(=O)c1ccccc1,–,inactive: 2.76%
O=C1CNC(=S)N1Cc1ccc(F)cc1,–,inactive: -2.54%
CC(=O)O[C@@]12CO[C@@H]1C[C@@H](O)[C@@]1(C)C(=O)[C@H](O)C3=C(C)[C@@H](OC(=O)[C@H](O)[C@@H](NC(=O)c4ccccc4)c4ccccc4)C[C@@](O)([C@@H](OC(=O)c4ccccc4)C12)C3(C)C (some centres undefined),"inconclusive: 20 µM [activator, single point]",–
CC1CCN(C(=S)Nc2ccc(F)cc2)CC1,"inconclusive: 7.94 µM [activator, partial curve, poor fit]",–
Oc1ccccc1N1CCN(CC(O)COC2CCCc3ccccc32)CC1 (centres undefined),–,inactive: 1.62%
Cc1ccn(CCC(=O)NC2CC(C)(C)Cc3c2cnn3-c2ccccc2C)n1 (centres undefined),"inconclusive: 4.47 µM [activator, single point]",–

# Four entries picked at random from the list so far:
Compound,Potency,"activity, positive = growth rescue"
CC(=O)O[C@@]12CO[C@@H]1C[C@@H](O)[C@@]1(C)C(=O)[C@H](O)C3=C(C)[C@@H](OC(=O)[C@H](O)[C@@H](NC(=O)c4ccccc4)c4ccccc4)C[C@@](O)([C@@H](OC(=O)c4ccccc4)C12)C3(C)C (some centres undefined),"inconclusive: 20 µM [activator, single point]",–
C[C@@H]1CN([C@@H](C)CO)C(=O)c2cc(NC(=O)Nc3ccccc3)ccc2O[C@H]1CN(C)C(=O)Nc1cccc2ccccc12,–,inactive: -5.95%
O=C(c1ccco1)N1CCN(c2c([N+](=O)[O-])nn(-c3ccc(Cl)cc3)[n+]2[O-])CC1,"inconclusive: 6.31 µM [activator, partial curve]",–
Oc1ccccc1N1CCN(CC(O)COC2CCCc3ccccc32)CC1 (centres undefined),–,inactive: 1.62%

# More structures follow:

Compound,Potency,"activity, positive = growth rescue"
C(=C/c1nccc2c1[nH]c1ccccc12)/c1ccc2c(c1)OCO2,–,inactive: -17.1%
CN(C)S(=O)(=O)c1ccc2oc(SCC(=O)NCC(F)(F)F)nc2c1,"inconclusive: 12.6 µM [activator, partial curve]",–
CC1(C)Cc2ccccc2-c2n[nH]c(=S)n21,"inconclusive: 20 µM [activator, single point]",–
CSc1nc(N)c(C#N)c(-c2ccc(Cl)cc2)c1C#N,–,inactive: 0.551%
CCOc1ccc(OCCOC(=O)CN(C)S(=O)(=O)c2ccc(NC(C)=O)cc2)cc1,"inconclusive: 0.316 µM [activator, partial curve, poor fit]",–
CCOC(=O)Nc1ccc2c(C)cc(=O)oc2c1,"inconclusive: 2.51 µM [activator, partial curve]",–
S=C(NCc1ccco1)Nc1cc(Cl)c(Cl)cc1Cl,–,inactive: 16.9%
CCN1C(=O)c2cccc3c(S(=O)(=O)Nc4ccccc4OC)ccc1c23,"inconclusive: 4.47 µM [activator, single point]",–
COCCNC(=S)N/N=C(\C)c1ccc(OC)cc1,active: 22.4 µM,–
CC1(C)CC(=O)C2=C(C1)OC1=C(C(=O)CC(C)(C)C1)C2c1ccccc1,–,inactive: -4.13%
COC(=O)C1C2CCC(C2)C1C(=O)OCC(=O)c1ccc(C)cc1 (centres undefined),"inconclusive: 10 µM [activator, single point]",–
Cc1c(CCO)c(=O)[nH]n1S(=O)(=O)c1ccc(Cl)cc1Cl,"inconclusive: 3.98 µM [activator, single point]",–
CC(C)Cn1c(-c2nn(C)cc2Cl)n[nH]c1=S,–,inactive: 0.826%
c1ccc(-n2nnnc2SCc2cccc3nsnc23)cc1,"inconclusive: 4.47 µM [activator, single point]",–
Cc1ccc(C)c(OCCCC(=O)O)c1,"inconclusive: 2.82 µM [activator, partial curve]",–
COc1ccc(NC(=O)c2ccc3c(=O)n4c(nc3c2)CCCCC4)cc1,–,inactive: -8.36%
C[C@@H](C(=O)OCC(=O)c1ccccc1)N1C(=O)C2CCCCC2C1=O (some centres undefined),–,inactive: 4.73%
COCCCNC(=O)Cn1c(=O)n(CC(=O)N2CCCCC2)c(=O)c2sccc21,"inconclusive: 5.01 µM [activator, partial curve]",–
CCCCn1c(N)c(N(CC)C(=O)c2cccc(S(=O)(=O)N3CCCc4ccccc43)c2)c(=O)[nH]c1=O,"inconclusive: 17.8 µM [activator, single point]",–
CCOC(=O)N1CCN(CC(O)COCc2ccccc2)CC1 (centres undefined),"inconclusive: 17.8 µM [activator, single point]",–
CC1CCCC(NC(=S)NC(=O)c2cncc(Br)c2)C1C (centres undefined),"inconclusive: 20 µM [activator, single point]",–
COc1ccc(OCC(=O)NCc2cccnc2)cc1,"inconclusive: 3.98 µM [activator, single point]",–
CC1(C)Cc2c(c(N3CCCC3)nc3sc4c(N5CCNCC5)ncnc4c23)CO1,–,inactive: 0.0487%

Compound,Potency,"activity, positive = growth rescue"
COCCN1C(=O)NC(=O)/C(=C\c2ccc(F)cc2)C1=O,–,inactive: 3.31%
COc1cccc(-c2ccc3ncnc(NCc4cccc(F)c4)c3c2)c1,active: 8.91 µM,–
COc1ccccc1CNC(=O)CSc1ccc(Br)cc1,–,inactive: 20.4%
COc1cc(C(=O)Oc2c(CN3CCOCC3)cc(Cl)c3cccnc23)cc(OC)c1OC,"inconclusive: 20 µM [activator, single point]",–
COc1ccc(N2CCN(C(=O)c3c(-c4ccccc4)noc3C)CC2)cc1,"inconclusive: 14.1 µM [activator, partial curve]",–
COc1ccccc1N(CC(=O)N/N=C/c1c(O)ccc2ccccc12)S(C)(=O)=O,active: 11.2 µM,–
COc1ccc(NC(=S)NNC(=O)Cn2nc([N+](=O)[O-])cc2C)cc1,"inconclusive: 20 µM [activator, single point]",–
CN(Cc1cc(=O)[nH]c2ccccc12)C(=O)c1ccccc1,"inconclusive: 11.2 µM [activator, partial curve]",–
COc1ccc(C(=O)N(Cc2sccc2C)C2CCS(=O)(=O)C2)cc1 (centres undefined),"inconclusive: 0.398 µM [activator, full curve]",–
CC(=O)N1CCc2c(sc(NC(=O)Cc3ccc(F)cc3)c2C(N)=O)C1,"inconclusive: 0.398 µM [activator, full curve, poor fit]",–
COc1ccc(-c2nnc(SCC(=O)c3ccc[nH]3)o2)cc1,"inconclusive: 3.55 µM [activator, single point]",–
NC(=O)NC(=O)COC(=O)CN1C(=O)C2CCCCC2C1=O (centres undefined),"inconclusive: 1.26 µM [activator, partial curve]",–
N#Cc1cc2c(nc1SCC(=O)Nc1nccs1)CCCCC2,"inconclusive: 4.47 µM [activator, single point]",–
N#Cc1ccc(Cl)cc1NC(=O)COC(=O)[C@H](CCC(N)=O)NC(=O)c1ccc(F)cc1,"inconclusive: 20 µM [activator, single point]",–
CCOc1ccc(NCc2nnc(SCC(=O)Nc3nc(-c4ccccc4)cs3)n2-c2ccccc2)cc1,–,inactive: 9.51%
C=CCc1cccc2cc(C(=O)Nc3ccc(S(=O)(=O)Nc4nnc(CC)s4)cc3)c(=O)oc12,"inconclusive: 2.82 µM [activator, full curve, poor fit]",–
O=C(Nc1ccc(N2CCN(C(=O)c3ccccc3F)CC2)cc1)c1cncc(Br)c1,"inconclusive: 2.82 µM [activator, partial curve]",–
CCOC(=O)c1c(CN2CCN(c3ccccc3)CC2)oc2cc(Br)c(O)cc12,–,inactive: 4.17%
CCOC(=O)c1c(NC(=O)CSc2nc3ccccc3c(=O)n2-c2ccc(F)cc2)sc(C(C)=O)c1C,"inconclusive: 0.316 µM [activator, partial curve, poor fit]",–
COc1cc(NC(=O)CSc2nc3ccccc3c(=O)n2C)ccc1NC(=O)c1ccco1,"inconclusive: 20 µM [activator, single point]",–
COc1ccccc1NS(=O)(=O)c1ccc2c(c1)NC(=O)CC(=O)N2,"inconclusive: 2.82 µM [activator, single point]",–
CCc1cc(=O)[nH]c(SC/C=C/c2ccccc2)n1,"inconclusive: 0.355 µM [activator, full curve, poor fit]",–
CN(C)[C@@H]1C(=O)C(C(=O)NCN2CCCC2)=C(O)[C@@]2(O)C(=O)C3=C(O)c4c(O)cccc4[C@@](C)(O)C3CC12 (some centres undefined),"inconclusive: 12.6 µM [activator, single point]",–
